The values below come from PMC10968680, “FHND004 inhibits malignant proliferation of multiple myeloma by targeting PDZ-binding kinase in MAPK pathway” (Aging (Albany NY), 2024).

Protein sequences, listed by entry. Tags and fused reporters are not part of them.
UniProt P27361: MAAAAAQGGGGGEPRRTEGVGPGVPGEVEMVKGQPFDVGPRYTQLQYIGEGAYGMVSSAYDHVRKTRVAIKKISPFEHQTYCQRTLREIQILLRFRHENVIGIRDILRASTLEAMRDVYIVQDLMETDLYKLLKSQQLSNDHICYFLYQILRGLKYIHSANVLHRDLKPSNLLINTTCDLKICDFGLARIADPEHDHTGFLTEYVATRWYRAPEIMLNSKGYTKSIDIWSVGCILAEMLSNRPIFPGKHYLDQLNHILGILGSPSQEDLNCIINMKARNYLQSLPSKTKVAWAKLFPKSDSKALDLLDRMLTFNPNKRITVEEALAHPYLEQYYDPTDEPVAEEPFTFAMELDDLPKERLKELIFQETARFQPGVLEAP
UniProt P28482: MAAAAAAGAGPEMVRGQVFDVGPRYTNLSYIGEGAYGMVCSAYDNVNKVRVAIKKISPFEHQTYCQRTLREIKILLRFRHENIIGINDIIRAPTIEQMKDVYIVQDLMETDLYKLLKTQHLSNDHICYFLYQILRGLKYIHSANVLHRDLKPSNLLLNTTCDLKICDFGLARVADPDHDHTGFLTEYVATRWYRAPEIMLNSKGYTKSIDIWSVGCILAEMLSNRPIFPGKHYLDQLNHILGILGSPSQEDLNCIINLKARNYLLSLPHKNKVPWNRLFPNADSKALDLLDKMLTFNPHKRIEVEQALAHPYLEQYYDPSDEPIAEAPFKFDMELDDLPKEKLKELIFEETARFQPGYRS

The experiment addresses T1, PDZ-binding kinase (PBK), Flag-tagged, stably overexpressed in H929 cells (PBK-OE) (human) (UniProt Q96KB5).
T1 sequence: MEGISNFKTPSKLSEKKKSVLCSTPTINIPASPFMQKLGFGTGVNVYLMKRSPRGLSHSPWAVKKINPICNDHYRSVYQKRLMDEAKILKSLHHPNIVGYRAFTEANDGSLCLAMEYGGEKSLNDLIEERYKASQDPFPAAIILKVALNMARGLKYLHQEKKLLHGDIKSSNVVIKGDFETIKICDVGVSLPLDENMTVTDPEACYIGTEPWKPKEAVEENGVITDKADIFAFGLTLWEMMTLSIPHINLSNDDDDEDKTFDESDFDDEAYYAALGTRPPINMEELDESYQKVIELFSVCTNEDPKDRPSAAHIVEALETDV
Kind of experiment: co-IP; H929 PBK-OE cells, RIPA lysate with protease inhibitor, Pierce Direct Magnetic IP/Co-IP kit; cells with or without FHND004 (4 uM); p-ERK1/2 detected by Western blot.

No constants are given. Whether binding was seen depends on the method and setting. Binding seen in cells or lysates may run through a third protein. Some entries that bind do so weakly or less than the wild type. Where a sequence is shown, tags or fusion partners need not be part of it.

On to “phosphorylated ERK1 (the ERK1 member of p-ERK1/2) (from UniProt P27361 1-379) (enzyme)”, for which the binding result was “binds”.

For the substance “phosphorylated ERK2 (the ERK2 member of p-ERK1/2) (from UniProt P28482 1-360) (enzyme)”, the binding entry is recorded as “binds”.
